Data reported in publication PMC4204899.
Results are given in words; binding and its absence hold for the method and conditions named. Binding seen in cells or lysates may run through a third protein. Some results given as binding are weak or reduced against the parent protein; the word gives no strength.

Chains of the proteins cited; added tags and fusions are not shown. Lines headed by an entry give the natural chain unless they say otherwise; changes in a name come on top. A line that says so, or that is headed by a name, gives the form on record, which may keep a tag or linker. Residues count along the entry.
afadin (P55196-1, form named): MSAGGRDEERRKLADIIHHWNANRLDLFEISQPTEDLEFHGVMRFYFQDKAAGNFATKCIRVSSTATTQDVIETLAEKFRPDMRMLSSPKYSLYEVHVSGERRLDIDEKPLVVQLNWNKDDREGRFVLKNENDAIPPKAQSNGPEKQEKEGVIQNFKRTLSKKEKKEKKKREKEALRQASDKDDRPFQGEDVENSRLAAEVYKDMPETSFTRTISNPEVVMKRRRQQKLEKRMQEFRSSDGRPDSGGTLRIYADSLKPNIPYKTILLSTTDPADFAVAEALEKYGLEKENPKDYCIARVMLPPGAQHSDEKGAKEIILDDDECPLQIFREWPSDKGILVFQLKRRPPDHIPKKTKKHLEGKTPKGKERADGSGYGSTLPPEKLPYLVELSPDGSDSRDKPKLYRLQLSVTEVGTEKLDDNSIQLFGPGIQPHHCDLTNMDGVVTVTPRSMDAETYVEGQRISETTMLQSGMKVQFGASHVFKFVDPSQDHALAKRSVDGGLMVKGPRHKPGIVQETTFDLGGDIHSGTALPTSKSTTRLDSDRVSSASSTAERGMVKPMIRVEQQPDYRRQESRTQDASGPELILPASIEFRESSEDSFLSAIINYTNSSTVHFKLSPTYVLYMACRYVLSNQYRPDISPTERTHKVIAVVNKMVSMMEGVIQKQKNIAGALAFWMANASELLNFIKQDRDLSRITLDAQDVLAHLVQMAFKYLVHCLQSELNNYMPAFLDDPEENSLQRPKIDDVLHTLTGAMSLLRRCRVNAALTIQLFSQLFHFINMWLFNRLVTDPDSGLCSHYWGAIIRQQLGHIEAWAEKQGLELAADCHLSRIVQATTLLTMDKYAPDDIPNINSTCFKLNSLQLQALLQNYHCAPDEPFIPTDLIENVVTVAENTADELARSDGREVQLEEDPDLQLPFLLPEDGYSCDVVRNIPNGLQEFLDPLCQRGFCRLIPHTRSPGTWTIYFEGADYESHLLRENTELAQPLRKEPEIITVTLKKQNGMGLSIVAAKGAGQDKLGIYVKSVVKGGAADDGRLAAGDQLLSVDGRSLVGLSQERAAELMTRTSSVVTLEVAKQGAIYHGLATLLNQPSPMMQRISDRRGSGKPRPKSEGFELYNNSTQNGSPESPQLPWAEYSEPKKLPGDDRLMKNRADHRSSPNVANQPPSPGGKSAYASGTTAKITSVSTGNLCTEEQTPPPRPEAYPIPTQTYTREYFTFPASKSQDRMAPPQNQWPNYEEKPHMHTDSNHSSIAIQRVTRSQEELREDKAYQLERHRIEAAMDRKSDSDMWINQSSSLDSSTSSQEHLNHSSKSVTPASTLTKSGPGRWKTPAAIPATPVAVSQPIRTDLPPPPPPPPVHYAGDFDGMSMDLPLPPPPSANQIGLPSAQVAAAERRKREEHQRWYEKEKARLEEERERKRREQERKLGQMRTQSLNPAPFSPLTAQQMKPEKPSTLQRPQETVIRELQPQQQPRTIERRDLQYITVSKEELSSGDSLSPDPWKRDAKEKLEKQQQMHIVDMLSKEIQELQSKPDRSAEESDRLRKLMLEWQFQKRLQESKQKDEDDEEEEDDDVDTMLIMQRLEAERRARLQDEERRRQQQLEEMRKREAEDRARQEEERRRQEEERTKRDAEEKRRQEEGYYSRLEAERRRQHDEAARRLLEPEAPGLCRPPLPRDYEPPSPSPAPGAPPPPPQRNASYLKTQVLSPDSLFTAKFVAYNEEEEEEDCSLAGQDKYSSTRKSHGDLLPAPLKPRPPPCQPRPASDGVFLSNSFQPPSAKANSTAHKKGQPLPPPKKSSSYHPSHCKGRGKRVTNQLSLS
UniProt P54753, residues 34-998: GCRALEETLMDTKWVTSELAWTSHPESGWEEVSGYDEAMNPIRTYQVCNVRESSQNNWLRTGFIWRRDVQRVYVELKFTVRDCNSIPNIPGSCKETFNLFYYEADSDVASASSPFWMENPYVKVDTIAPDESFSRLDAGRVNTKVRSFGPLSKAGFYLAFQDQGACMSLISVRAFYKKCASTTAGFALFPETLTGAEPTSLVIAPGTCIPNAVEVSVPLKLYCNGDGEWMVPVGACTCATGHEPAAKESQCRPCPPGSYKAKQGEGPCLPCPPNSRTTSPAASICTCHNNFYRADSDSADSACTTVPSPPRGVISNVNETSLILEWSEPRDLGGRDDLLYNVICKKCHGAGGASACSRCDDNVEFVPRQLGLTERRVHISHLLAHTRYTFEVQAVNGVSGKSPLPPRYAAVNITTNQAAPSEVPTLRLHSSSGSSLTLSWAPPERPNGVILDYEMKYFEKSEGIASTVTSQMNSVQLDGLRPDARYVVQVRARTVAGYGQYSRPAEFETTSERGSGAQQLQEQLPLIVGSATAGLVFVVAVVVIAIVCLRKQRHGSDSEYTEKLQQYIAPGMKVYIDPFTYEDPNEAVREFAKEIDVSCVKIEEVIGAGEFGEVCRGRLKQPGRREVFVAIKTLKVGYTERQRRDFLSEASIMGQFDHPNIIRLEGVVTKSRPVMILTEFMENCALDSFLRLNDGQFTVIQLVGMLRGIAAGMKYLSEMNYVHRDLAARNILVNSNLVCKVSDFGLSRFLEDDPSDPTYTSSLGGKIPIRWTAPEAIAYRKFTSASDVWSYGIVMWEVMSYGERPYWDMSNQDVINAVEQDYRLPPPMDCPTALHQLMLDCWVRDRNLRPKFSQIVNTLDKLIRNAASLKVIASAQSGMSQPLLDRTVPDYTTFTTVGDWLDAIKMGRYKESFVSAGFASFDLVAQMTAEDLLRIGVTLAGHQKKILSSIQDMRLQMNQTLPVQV

Experiments:
[1] = target: afadin (human (endogenous in Ls174T)) (UniProt P55196); assay: co-IP; endogenous proteins from Ls174T lysate (50 mM Tris HCl pH 7.5, 150 mM NaCl, 1 mM MgCl2, 1% Nonidet P-40, 1 mM EGTA, 10% glycerol); IgG, anti-afadin or anti-EphB3 antibody on Dynabeads Protein G added to 1 mg of pre-cleared lysate; Western blot
[2] = target: EphB3 (human (endogenous in Ls174T)) (UniProt P54753); assay: as above

binding [1]	binding [2]	Substance
binds	–	EphB3 (from UniProt P54753 34-998) (receptor)
–	binds	afadin (from UniProt P55196-1 1-1816)
